Binding screen against folded nucleic acids

From ROBIN, a set of small-molecule microarray screens (doi:10.1002/anie.202211358).

Oligonucleotides screened, 5′ to 3′:
TPP: TPP riboswitch RNA three-way junction, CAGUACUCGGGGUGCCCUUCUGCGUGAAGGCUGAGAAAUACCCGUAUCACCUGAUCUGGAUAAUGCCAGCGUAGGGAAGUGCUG. About 160 hits among about 24,000 compounds.
PreQ1: PreQ1 riboswitch RNA pseudoknot, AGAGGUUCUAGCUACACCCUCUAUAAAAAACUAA. From B. subtilis. About 170 hits among about 24,000 compounds.
SAM-II: SAM-II riboswitch RNA pseudoknot, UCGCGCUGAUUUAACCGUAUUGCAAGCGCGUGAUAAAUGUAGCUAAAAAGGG. About 200 hits among about 21,000 compounds.

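The test is a small-molecule microarray: each compound is printed twice on a reactive slide, and binding shows as fluorescence of the labelled oligonucleotide after washing. The data file lists only calls. An earlier report of the laboratory on the PreQ1, TPP and SAM-II riboswitches (doi:10.1038/s41467-019-09493-3) used 1 µM RNA for 2 h and required a mean Z-score above 3 (spot signal-to-noise against the whole library), a score well above that on a control array, and duplicate spots agreeing (coefficient of variation under 100); it then also set aside compounds that hit other targets, which this list keeps. The cut-offs behind this list may differ. A missing hit is not proof of no binding, and a hit is not a measured affinity.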
Key: 1 = hit, 0 = tested without a hit.
The compounds are a random part of those screened.
A dash means that no call is listed here.

| # | compound | TPP | PreQ1 | SAM-II |
|---|---|---|---|---|
| 1 | `Nc1c(C(=O)NCc2ccc(Cl)cc2)sc2nc(-c3cccs3)ccc12` | 0 | 0 | 0 |
| 2 | `Cc1nc(NCCS(=O)(=O)N2CCCC2)cc(C2CCNCC2)n1` | 0 | 0 | 0 |
| 3 | `c1ccn2c(Nc3ccc4c(c3)OCCO4)c(-c3ccc(N4CCOCC4)cc3)nc2c1` | 0 | 0 | 0 |
| 4 | `C1=C[C@H]2C[C@@H]1C[C@H]2CCNc1nc(-c2cccnc2)nc2c1CCNC2` | 1 | 0 | 1 |
| 5 | `CCCCc1ccc(C2C(C#N)=C(N)OC3=C2C(=O)CCC3)s1` (stereo unspecified) | 0 | 0 | 0 |
| 6 | `O=c1c(NCc2ccco2)c(-c2ccc(Cl)cc2)c1=O` | 0 | 0 | - |
| 7 | `COc1cccc(CCC2CCCN(c3cc(C)nc(N)n3)C2)c1` (stereo unspecified) | 0 | 0 | 0 |
| 8 | `CCc1nnc(NC(=O)C(CC)Nc2ccc3c(c2)OCCO3)s1` (stereo unspecified) | 0 | 0 | 0 |
| 9 | `COc1ccc(C(N)c2ccc(OC)cc2)cc1` | 0 | 0 | 0 |
| 10 | `COC(=O)c1ccc(OCC(O)Cn2cnc3ccccc32)cc1` (stereo unspecified) | 0 | 0 | 0 |
| 11 | `CN(C)NC(=O)CCC(=O)O` | 0 | 0 | 0 |
| 12 | `Cn1c(NCCCO)nc2c1c(=O)n(Cc1ccc(Cl)cc1)c(=O)n2C` | 0 | 0 | 0 |
| 13 | `CCOCc1nc2c(c(N[C@@H]3c4ccccc4C[C@@H]3O)n1)CCNCC2` | 0 | 0 | 0 |
| 14 | `NCCn1cc(C(=O)NCCc2csc(-c3cccnc3)n2)nn1` | 0 | 0 | 0 |
| 15 | `Cc1nc(-n2nc(C)c(Cc3ccccc3)c2C)sc1C(=O)N1CCN(CCO)CC1` | 0 | 0 | - |
| 16 | `c1ccc2c(c1)nnn2CCCn1ccnc1-c1cc2n(n1)CCCNC2` | 0 | 0 | 0 |
| 17 | `Cc1ccc(-n2nnc(-c3nc(-c4ccccc4F)no3)c2N)cc1C` | 0 | 0 | - |
| 18 | `CCOc1cc(C=C2C(=O)N(c3ccccc3)N=C2C)cc(Cl)c1OCC(=O)OC` | 0 | 0 | 0 |
| 19 | `CC1CCCC(Nc2c(-c3ccc(Cl)cc3)[nH]c3c(C#N)cnn23)C1C` (stereo unspecified) | 0 | 0 | - |
| 20 | `C=CCc1c(C)nc(N)nc1N1CCC(CC(=O)OC)C1` (stereo unspecified) | 0 | 0 | 0 |
| 21 | `Cc1ccsc1[C@@H]1CCN(Cc2cnc(-c3ccco3)nc2)C[C@H]1O` | 0 | 0 | 0 |
| 22 | `Cc1ccccc1Nc1ncnc2c1nc1n2CCCC1` | 0 | 0 | - |
| 23 | `CCOC(=O)c1c(N)c(C#N)c2n1CCCC2` | 0 | 0 | 0 |
| 24 | `CO[C@H]1CN(C(=O)c2cnnn2-c2ccccc2)CC[C@H]1N` | 0 | 0 | 0 |
| 25 | `Nc1nonc1C(=O)N1CCN(C(=O)Nc2ccc(Cl)cc2)CC1` | 0 | 0 | - |
| 26 | `O=C(c1cccc(-c2ncc[nH]2)c1)N1CCC2(CC1)[C@H](O)C[C@@H]2OCCO` | 0 | 0 | 0 |
| 27 | `OC(Cc1ccc2ccccc2n1)C(Cl)(Cl)Cl` (stereo unspecified) | 0 | 0 | 0 |
| 28 | `Cc1ccc(C)c(NCc2ccccc2CO)c1` | 0 | 0 | 0 |
| 29 | `Cc1ccc2c(CNC3CCCCCC3)c(C(=O)O)[nH]c2c1` | 0 | 0 | - |
| 30 | `COc1cccc(Nc2cc(C(C)C)nc3nc(-c4cccnc4)nn23)c1` | 0 | 0 | - |
| 31 | `CNCC(=O)N1C[C@@H](F)C[C@H]1CNS(=O)(=O)c1cccc(F)c1` | 0 | 0 | 0 |
| 32 | `CCc1nnc2c(Nc3ccc(N4CCOCC4)cc3)nc3ccccc3n12` | 0 | 0 | - |
| 33 | `NCCO[C@H]1C[C@@H](O)C12CCN(C(=O)COc1cccc(Cl)c1)CC2` | 0 | 0 | 0 |
| 34 | `Cn1cc(C2=Nc3cc(NC(=O)[C@H](N)C4CCCCC4)cc4c3C2=CNNC4=O)cn1` | 0 | 0 | 0 |
| 35 | `O=C(NCC(O)CO)c1ccc2[nH]c3ccccc3c2c1` (stereo unspecified) | 0 | 0 | 0 |
| 36 | `COCCC1(CO)CCCN(C(=O)CCc2cccc(Cl)c2)C1` (stereo unspecified) | 0 | 0 | 0 |
| 37 | `CN(C)CCN(C)C[C@@H]1CN(C(=O)c2nc(N)nc3c2CCCC3)C[C@@H]1CO` | 0 | 0 | 0 |
| 38 | `Cc1cc(C)n(-c2nc3cc(Cl)ccc3nc2NCc2cccnc2)n1` | 0 | 0 | - |
| 39 | `CCOC(=O)c1[nH]c2sc3c(c2c1N)CCCC3` | 0 | 0 | - |
| 40 | `CCOC(=O)c1cc(CNCCc2c[nH]c3ccc(F)cc23)on1` | 0 | 0 | 0 |
| 41 | `C=CCOC(=O)C1=C(C)OC(N)=C(C(=O)OC)C12C(=O)N(C)c1ccc(Br)cc12` (stereo unspecified) | 0 | 0 | 0 |
| 42 | `COc1cc(F)c(C(C)C)cc1-c1ccc(C(F)(F)F)cc1CN1C(=O)O[C@H](c2cc(C(F)(F)F)cc(C(F)(F)F)c2)[C@@H]1C` | 0 | 0 | 0 |
| 43 | `Clc1ccc(C(Cn2ccnc2)OCc2ccsc2Cl)c(Cl)c1` (stereo unspecified) | 0 | 0 | 0 |
| 44 | `CCC(O)c1nc2ccccc2n1CCOc1cc(C)ccc1C` (stereo unspecified) | 0 | 0 | - |
| 45 | `Cn1c(=O)n(CCCO)c(=O)c2c1nc1n2CCCN1C1CCCCC1` | 0 | 0 | - |
| 46 | `O=C(CC1CNCCO1)N(CCc1ccccc1)Cc1ccccn1` (stereo unspecified) | 0 | 0 | 0 |
| 47 | `Nc1c(-c2cccc(Cl)c2)cnn1-c1ccc(C(=O)O)cc1` | 0 | 0 | 0 |
| 48 | `O=C1CCC(c2ccccc2)=C1CC(=O)N1Cc2ccccc2C(O)C1` (stereo unspecified) | 0 | 0 | 1 |
| 49 | `O=C(c1cc(C2CC2)n[nH]1)N1CCC(C(O)c2cccs2)CC1` (stereo unspecified) | 0 | 0 | 0 |
| 50 | `O=C(O)c1ccccc1C(=O)Nc1ccccc1[N+](=O)[O-]` | 0 | 0 | 0 |

The last 5 entries again:

| compound | TPP | PreQ1 | SAM-II |
|---|---|---|---|
| `O=C(CC1CNCCO1)N(CCc1ccccc1)Cc1ccccn1` (stereo unspecified) | 0 | 0 | 0 |
| `Nc1c(-c2cccc(Cl)c2)cnn1-c1ccc(C(=O)O)cc1` | 0 | 0 | 0 |
| `O=C1CCC(c2ccccc2)=C1CC(=O)N1Cc2ccccc2C(O)C1` (stereo unspecified) | 0 | 0 | 1 |
| `O=C(c1cc(C2CC2)n[nH]1)N1CCC(C(O)c2cccs2)CC1` (stereo unspecified) | 0 | 0 | 0 |
| `O=C(O)c1ccccc1C(=O)Nc1ccccc1[N+](=O)[O-]` | 0 | 0 | 0 |